# The other results are listed elsewhere or left out. Shown are side measurements of this screen, not its main read-out; they come without a call. The list favours compounds with an active or inconclusive main result. Potencies come from curve fits of mixed quality, noted in brackets.
# Assay: qHTS Assay for Lipid Storage Modulators in Drosophila S3 Cells;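 for cell number change: cells counted by Cell Tracker Red CMTPX staining in the red channel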
# Settings: BODIPY lipid droplet fluorescence, 18-24 h; for cell number change: measured here: cell count max response, cells fed with added oleic acid
# Procedure, shortened: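 Drosophila S3 cells got compounds at several concentrations plus oleic acid (400 uM solution). Laser-scanning cytometry with 488 nm excitation read lipid droplets at 500-530 nm and cells at 575-640 nm. Percent activity was relative to 20 uM Triacsin C.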
# [1] = measured here: cell number channel AC50, cells fed with added oleic acid
# [2] = measured here: lipid fluorescence (Fed channel) AC50, cells fed with added oleic acid
SMILES,cell number change,AC50 [1],AC50 [2]
Cc1cc(C(=O)CSc2nc(N)cc(N)n2)c(C)n1C1CC1,-9.4%,"0.13 µM [falling, full curve]",
CCOC(=O)[C@H]1[C@H]2COc3ccc(C)cc3[C@@H]2N2C(=O)[C@@H](CO)NC(=O)[C@@]12C,-13.4%,,"3.26 µM [falling, full curve, poor fit]"
CN1CCN(C(=O)c2ccccc2NC(=O)c2ccccc2)CC1,7.8%,,"4.61 µM [rising, partial curve]"
CC(CNC(=O)c1ccc(C(C)(C)C)cc1)CN(C)C (stereo not given),-13.2%,,"0.00461 µM [falling, full curve, poor fit]"
COc1ccc(C2CC(c3ccccc3O)=NN2C(=O)c2ccccc2)cc1OC (stereo not given),-31.5%,"0.13 µM [falling, full curve, poor fit]",
COc1ccc(-c2ccc(/C=C3/C(=N)N4C(C)=CSC4=NC3=O)o2)c([N+](=O)[O-])c1,-19.3%,,
CCOCCCNCC(=O)Nc1ccc(OC(F)(F)F)cc1,47.4%,"32.6 µM [rising, single point]",
CC(=O)N1CCN(c2ccc(NC(=O)c3ccccc3)cc2)CC1,10.8%,,"29.1 µM [rising, single point]"
CCCCn1c(N)c(N(CCOC)C(=O)COC(=O)CCOc2ccc(C)cc2)c(=O)[nH]c1=O,-13.3%,,"1.46 µM [falling, full curve]"
COc1ccc(N2CCN(C(=O)Cn3cnc4sc(C)c(S(=O)(=O)N5CCOCC5)c4c3=O)CC2)cc1,16.2%,,"0.206 µM [rising, full curve]"
O=C(c1cccs1)[C@@H]1[C@@H]2C(=O)N(Cc3ccc4c(c3)OCO4)C(=O)[C@@H]2C2c3ccccc3C=CN21 (stereo not given in full),35.6%,"2.06 µM [rising, partial curve]",
COc1ccc2cc3cc(C(=O)NCCN4CCc5ccccc5C4)oc3nc2c1,-14.9%,,"14.6 µM [falling, single point]"
COc1ccccc1CC(=O)Nc1c[nH]c(=O)[nH]c1=O,-32.6%,"0.82 µM [falling, full curve]","0.146 µM [falling, full curve, poor fit]"
CCOC(=O)c1cccc(Nc2nc(-c3cccnc3)nc3ccccc23)c1,-51.1%,"29.1 µM [falling, single point]","29.1 µM [falling, partial curve, poor fit]"
O=C(c1cccs1)N1CCN=C1SCc1cccc(F)c1,,"0.411 µM [rising, partial curve]",
C=CCOc1ccccc1C(=O)/C=C1/C(=O)Nc2ccccc21,-72.7%,"16.4 µM [falling, single point]",
Cc1ccccc1C(=O)Nc1cccc(NC(=O)c2ccc(F)cc2)c1,22.7%,,"29.1 µM [rising, single point]"
COc1cccc(/C=C/C(=O)OCC(=O)c2c(N)n(C)c(=O)n(C)c2=O)c1,-1.61%,,"29.1 µM [falling, single point]"
CCCC(=O)NC(c1ccco1)c1c(O)ccc2ccccc12 (stereo not given),,,"0.58 µM [falling, single point]"

# Part of the list above in order of molecular weight, smallest number first.
SMILES,cell number change,AC50 [1],AC50 [2]
CC(CNC(=O)c1ccc(C(C)(C)C)cc1)CN(C)C (stereo not given),-13.2%,,"0.00461 µM [falling, full curve, poor fit]"
C=CCOc1ccccc1C(=O)/C=C1/C(=O)Nc2ccccc21,-72.7%,"16.4 µM [falling, single point]",
CCCC(=O)NC(c1ccco1)c1c(O)ccc2ccccc12 (stereo not given),,,"0.58 µM [falling, single point]"
Cc1cc(C(=O)CSc2nc(N)cc(N)n2)c(C)n1C1CC1,-9.4%,"0.13 µM [falling, full curve]",
CN1CCN(C(=O)c2ccccc2NC(=O)c2ccccc2)CC1,7.8%,,"4.61 µM [rising, partial curve]"
CCOC(=O)c1cccc(Nc2nc(-c3cccnc3)nc3ccccc23)c1,-51.1%,"29.1 µM [falling, single point]","29.1 µM [falling, partial curve, poor fit]"
COc1ccc(-c2ccc(/C=C3/C(=N)N4C(C)=CSC4=NC3=O)o2)c([N+](=O)[O-])c1,-19.3%,,

# Following part:

SMILES,cell number change,AC50 [1],AC50 [2]
Cc1nnc(NC(=O)c2ccc3ccccc3c2)s1,16.6%,,
COc1ccc(OC(C)C(=O)Nc2cccnc2)cc1 (stereo not given),-35.8%,"7.31 µM [falling, partial curve]","6.51 µM [falling, single point]"
Clc1ccccc1-c1nc(N/N=C/c2cccnc2)c2ccccc2n1,42.1%,"32.6 µM [rising, single point]",
CCCn1nnnc1NCc1ccc(SC)cc1,8.8%,"0.082 µM [rising, full curve, poor fit]",
Cc1cc(=O)oc(C)c1C(=O)OCC(=O)c1ccc(Cl)c(Cl)c1,-2.43%,"0.0517 µM [falling, full curve, poor fit]","23.1 µM [falling, partial curve]"
CCCN(CCC)C(=S)NC1CC2C=CC1C2 (stereo not given),-1.49%,"3.66 µM [falling, single point]",
CCCCN(CCCNC(=O)C1CCN(S(=O)(=O)N2CCOCC2)CC1)c1ccccc1,-31.4%,"32.6 µM [falling, partial curve, poor fit]","29.1 µM [falling, single point]"
COc1cc(C2NC(=S)NC(O)(C(F)(F)F)C2C(=O)c2cccs2)cc(OC)c1O (stereo not given),38.7%,"29.1 µM [rising, single point]","29.1 µM [rising, single point]"
CCOC(=O)COc1ccc(C(=O)Nc2cccc(Cl)c2C)cc1,-9.01%,"0.517 µM [falling, single point]","0.461 µM [falling, single point]"
COc1ccc(CNS(=O)(=O)c2c(C(=O)N3CCCCCC3)c(C)n(C)c2C)cc1,-4.89%,,"0.0164 µM [rising, full curve, poor fit]"
Cc1ccc([C@@H]2[C@@H]3C(=O)N(c4ccccc4)C(=O)[C@@H]3[C@]3(C)C(=O)N(CC4CC4)CC(=O)N23)o1,14.7%,,"1.84 µM [rising, partial curve]"
CCc1ccc(CN(C)Cc2nc(-c3cccc(Cl)c3)no2)nc1,-13.2%,,"0.00461 µM [falling, full curve, poor fit]"
CCSc1nc(-c2ccc(OC)cc2)ccc1C#N,,,"5.17 µM [rising, full curve]"
CCn1c(SCc2ccc(C(=O)O)cc2)nnc1-c1ccc(Cl)cc1,-8.64%,,"23.1 µM [falling, single point]"
COCCNC(=O)c1cc(-c2ccccc2)n(CC2CC(c3ccc(OC)cc3)=NO2)n1 (stereo not given),-13.6%,,"0.13 µM [falling, full curve, poor fit]"
COc1ccc2oc(C(=O)OCC(=O)N(Cc3ccccc3)C(C)C)c(C)c2c1,-19.8%,,
CCN(CC)S(=O)(=O)c1ccc(C(C)NCC(=O)Nc2ccccc2C(=O)NC2CC2)cc1 (stereo not given),-6.73%,,
COc1ccc2c(c1)CCc1c-2n[nH]c1C(=O)NCCC(C)C,-31.8%,"29.1 µM [falling, single point]","29.1 µM [falling, single point]"

# Source: PubChem BioAssay AID2685 (National Center for Advancing Translational Sciences (NCATS), 2010)
